According to publication doi:10.1101/2024.08.15.608058:
No constants are given. Whether binding was seen depends on the method and setting. Binding seen in cells or lysates may run through a third protein. These calls come from enrichment with a bait or labelling near it, and not all partners need be listed.

Sequences of proteins named here, by UniProt entry; tags and fusion partners are left off.
UniProt Q5TEA3: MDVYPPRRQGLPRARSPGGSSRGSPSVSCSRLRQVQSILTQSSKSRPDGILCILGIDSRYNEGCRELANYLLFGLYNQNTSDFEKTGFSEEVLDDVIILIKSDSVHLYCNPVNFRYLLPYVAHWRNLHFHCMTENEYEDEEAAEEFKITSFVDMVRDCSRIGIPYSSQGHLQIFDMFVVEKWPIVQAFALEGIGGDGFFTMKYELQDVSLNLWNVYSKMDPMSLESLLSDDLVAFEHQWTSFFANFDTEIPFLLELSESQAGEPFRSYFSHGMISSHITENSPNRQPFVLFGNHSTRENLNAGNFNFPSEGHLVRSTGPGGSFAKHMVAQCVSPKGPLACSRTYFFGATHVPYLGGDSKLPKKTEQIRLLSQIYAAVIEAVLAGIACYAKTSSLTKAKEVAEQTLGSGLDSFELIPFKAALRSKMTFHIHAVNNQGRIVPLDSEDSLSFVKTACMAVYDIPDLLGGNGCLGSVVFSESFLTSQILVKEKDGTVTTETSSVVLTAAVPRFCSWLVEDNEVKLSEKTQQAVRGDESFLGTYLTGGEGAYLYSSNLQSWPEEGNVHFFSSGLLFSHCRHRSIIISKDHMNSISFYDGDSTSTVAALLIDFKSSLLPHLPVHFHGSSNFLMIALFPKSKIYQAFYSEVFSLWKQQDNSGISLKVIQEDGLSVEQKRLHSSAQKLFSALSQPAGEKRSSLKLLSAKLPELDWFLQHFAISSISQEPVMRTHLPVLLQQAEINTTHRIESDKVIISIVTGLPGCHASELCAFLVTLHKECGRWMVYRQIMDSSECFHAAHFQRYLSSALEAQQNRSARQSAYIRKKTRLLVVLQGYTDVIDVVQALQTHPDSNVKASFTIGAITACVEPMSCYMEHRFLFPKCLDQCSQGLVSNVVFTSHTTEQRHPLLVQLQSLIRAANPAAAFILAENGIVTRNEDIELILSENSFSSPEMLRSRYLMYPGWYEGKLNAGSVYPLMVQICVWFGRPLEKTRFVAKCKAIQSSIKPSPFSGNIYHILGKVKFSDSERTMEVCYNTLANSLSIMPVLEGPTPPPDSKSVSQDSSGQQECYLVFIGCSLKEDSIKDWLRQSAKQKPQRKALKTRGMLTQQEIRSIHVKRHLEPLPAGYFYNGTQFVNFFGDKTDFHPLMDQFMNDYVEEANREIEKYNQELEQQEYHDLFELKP

B1: IFT74 (protein, UniProt Q96LB3 1-600)
chain: MASNHKSSAARPVSRGGVGLTGRPPSGIRPLSGNIRVATAMPPGTARPGSRGCPIGTGGVLSSQIKVAHRPVTQQGLTGMKTGTKGPQRQILDKSYYLGLLRSKISELTTEVNKLQKGIEMYNQENSVYLSYEKRAETLAVEIKELQGQLADYNMLVDKLNTNTEMEEVMNDYNMLKAQNDRETQSLDVIFTERQAKEKQIRSVEEEIEQEKQATDDIIKNMSFENQVKYLEMKTTNEKLLQELDTLQQQLDSQNMKKESLEAEIAHSQVKQEAVLLHEKLYELESHRDQMIAEDKSIGSPMEEREKLLKQIKDDNQEIASMERQLTDTKEKINQFIEEIRQLDMDLEEHQGEMNQKYKELKKREEHMDTFIETFEETKNQELKRKAQIEANIVALLEHCSRNINRIEQISSITNQELKMMQDDLNFKSTEVQKSQSTAQNLTSDIQRLQLDLQKMELLESKMTEEQHSLKSKIKQMTTDLEIYNDLPALKSSGEEKIKKLHQERMILSTHRNAFKKIMEKQNIEYEALKTQLQENETHSQLTNLERKWQHLEQNNFAMKEFIATKSQESDYQPIKKNVTKQIAEYNKTIVDALHSTSGN
B2: IFT81 (protein, UniProt Q8WYA0 1-676)
chain: MSDQIKFIMDSLNKEPFRKNYNLITFDSLEPMQLLQVLSDVLAEIDPKQLVDIREEMPEQTAKRMLSLLGILKYKPSGNATDMSTFRQGLVIGSKPVIYPVLHWLLQRTNELKKRAYLARFLIKLEVPSEFLQDETVADTNKQYEELMEAFKTLHKEYEQLKISGFSTAEIRKDISAMEEEKDQLIKRVEHLKKRVETAQNHQWMLKIARQLRVEKEREEYLAQQKQEQKNQLFHAVQRLQRVQNQLKSMRQAAADAKPESLMKRLEEEIKFNLYMVTEKFPKELENKKKELHFLQKVVSEPAMGHSDLLELESKINEINTEINQLIEKKMMRNEPIEGKLSLYRQQASIISRKKEAKAEELQEAKEKLASLEREASVKRNQTREFDGTEVLKGDEFKRYVNKLRSKSTVFKKKHQIIAELKAEFGLLQRTEELLKQRHENIQQQLQTMEEKKGISGYSYTQEELERVSALKSEVDEMKGRTLDDMSEMVKKLYSLVSEKKSALASVIKELRQLRQKYQELTQECDEKKSQYDSCAAGLESNRSKLEQEVRRLREECLQEESRYHYTNCMIKNLEVQLRRATDEMKAYISSDQQEKRKAIREQYTKNTAEQENLGKKLREKQKVIRESHGPNMKQAKMWRDLEQLMECKKQCFLKQQSQTSIGQVIQEGGEDRLIL
B3: Shulin, endogenous in Tetrahymena cells undergoing ciliary regeneration (protein, UniProt Q22YU3 1-1200)
chain: MFNFFSSANINQNIPKYSVNDFVFRLKKIEKIVVKEGLDGFLLINGVDSRENTEYVKLTNWLFLGNSGLEIEENEYLNQIYSDMIVLIKKGTTHIFIDPEALNSLQTLIYSIPNVDVFCPTEKQYEDKDEMELLKMAFFLRVMKPTKKVGILLGQKDKGKINSIEKWPLIQSYGLEELGVGFFSMNHEVVDLTLRLNAVYKNYDKFFVSKLIYVVAKRLTGHFNSAAGQLGDMKMHKRNLATESQLTEIFRDTYEIEEISKWVQIRGVNAALPKPRVLFGKNTSADCSKEPSVAPLKDLKYSETFHSFHATFETFDLRTCLRAARTYFLAKGVKEERNLITLNDDEGVPQGYELNIDENQQYKDQDFLANLYLSIIIGFNEVMQLITKDYKNMTEEFIQDYIFQKVSKVYAGFQIPESEITLDKIQIILKAYNSFGEEVKIDFKDTISFKLTPYFFMVRIEQKNIKSQILNNTVLGSLVFAESFILQEGCYLLLTKEIPYFDLWNCQNDYSEKIEKMKKRILWEPLGKQISDELPKNRIFVQTGRKSNYGFDIPIMQASYYMHELGLRIETQRLGWFILFFKEMKEIQITQKMNHTWLIFKVDSNITFNSISKDTIALEFTGDALEQSFFKIKNYFEENQIKYEYQVDIPAIFQESQIAKKQILNQQSQGQKLITMNSIQNEQFFISYIESKQLMILNQMKDLKLSAYKNLYEQMQISQAITPVENHIGVILVNGSYCSGKRKFAENLIRFGSDNNLRLHLYKFDLNEMSELTEKSYLSGLLKFASEKKIQNTDVIVASVPHFINTKILIDYFSKSEKISNAFYIRTIATKININNIYSNFNKNPVNNVFTYGVEGYSQFLLLDTYNNYDADVNALNKTLSGVLPGAKIYKIMNNILNPALAKDILTSITFISEQNNLNRLKYSVQYDLLTSNGPSSVVFIPFKLPILREKIRDLIYKKILQNGNQTLVDTIEAEQKIAEFKELNKNSKDPLMIEIIKLKEKIEIQNAQTSDQAIKIDYVKGILRYDSKLKEGLEEITITPNYFIERTVKGVDAKEFTEELNGVSFKNVKYTGITNSIINDMGFVFAGKNLNKEKLLELLYKLVKPLNKQKLRQRKDLTEEEIVDIQFRNRGEGLENGEFYDGQFWRNIQGLILPHHPKKDEFIEEYLKQEEVRINQINEQLQQEWETWKQVYDKIHLDK
B4: DNAI1 (protein, UniProt Q9UI46 1-699)
chain: MIPASAKAPHKQPHKQSISIGRGTRKRDEDSGTEVGEGTDEWAQSKATVRPPDQLELTDAELKEEFTRILTANNPHAPQNIVRYSFKEGTYKPIGFVNQLAVHYTQVGNLIPKDSDEGRRQHYRDELVAGSQESVKVISETGNLEEDEEPKELETEPGSQTDVPAAGAAEKVTEEELMTPKQPKERKLTNQFNFSERASQTYNNPVRDRECQTEPPPRTNFSATANQWEIYDAYVEELEKQEKTKEKEKAKTPVAKKSGKMAMRKLTSMESQTDDLIKLSQAAKIMERMVNQNTYDDIAQDFKYYDDAADEYRDQVGTLLPLWKFQNDKAKRLSVTALCWNPKYRDLFAVGYGSYDFMKQSRGMLLLYSLKNPSFPEYMFSSNSGVMCLDIHVDHPYLVAVGHYDGNVAIYNLKKPHSQPSFCSSAKSGKHSDPVWQVKWQKDDMDQNLNFFSVSSDGRIVSWTLVKRKLVHIDVIKLKVEGSTTEVPEGLQLHPVGCGTAFDFHKEIDYMFLVGTEEGKIYKCSKSYSSQFLDTYDAHNMSVDTVSWNPYHTKVFMSCSSDWTVKIWDHTIKTPMFIYDLNSAVGDVAWAPYSSTVFAAVTTDGKAHIFDLAINKYEAICNQPVAAKKNRLTHVQFNLIHPIIIVGDDRGHIISLKLSPNLRKMPKEKKGQEVQKGPAVEIAKLDKLLNLVREVKIKT
B5: LC3/NME9 (protein, UniProt Q86XW9 1-330)
chain: MGSRKKEIALQVNISTQELWEEMLSSKGLTVVDVYQGWCGPCKPVVSLFQKMRIEVGLDLLHFALAEADRLDVLEKYRGKCEPTFLFYAGGELVAVVRGANAPLLQKTILDQLEAEKKVLAEGRERKVIKDEALSDEDECVSHGKNNGEDEDMVSSERTCTLAIIKPDAVAHGKTDEIIMKIQEAGFEILTNEERTMTEAEVRLFYQHKAGEEAFEKLVHHMCSGPSHLLILTRTEGFEDVVTTWRTVMGPRDPNVARREQPESLRAQYGTEMPFNAVHGSRDREDADRELALLFPSLKFSDKDTEAPQGGEAEATAGPTEALCFPEDVD

Experiments:
[1] = target: DNAAF9 (human Shulin), endogenous in human airway epithelial cells (human (endogenous in HAECs)) (UniProt Q5TEA3); test: affinity purification with mass spectrometry
[2] = target: Tetrahymena thermophila Arl3 Q70L (GTP mimicking variant) (Tetrahymena thermophila) (UniProt Q229S0); test: affinity purification with mass spectrometry

Row | Binder | binding [1] | binding [2]
1 | B1 | binds | 
2 | B2 | binds | 
3 | B3 |  | binds
4 | B4 | binds | 
5 | B5 | binds | 
